# Test results taken from publication PMC7819943, “Rice protein-binding microarrays: a tool to detect cis-acting elements near promoter regions in rice”.
# Protein sequences, listed by entry. Tags and fused reporters are not part of them.
# UniProt Q0JBA9, entry or part of it: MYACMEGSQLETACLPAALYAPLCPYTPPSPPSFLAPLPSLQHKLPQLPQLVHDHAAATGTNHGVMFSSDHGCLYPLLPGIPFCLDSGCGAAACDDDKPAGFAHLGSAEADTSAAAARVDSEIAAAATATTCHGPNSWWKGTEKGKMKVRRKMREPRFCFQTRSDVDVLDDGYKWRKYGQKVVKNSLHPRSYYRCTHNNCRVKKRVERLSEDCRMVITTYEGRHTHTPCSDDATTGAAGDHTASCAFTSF
# The list shows a part of the results.
# Target: OsWRKY34 (Oryza sativa, UniProt Q0JBA9 1-250)
# Assay: protein-binding microarray (RPBM); PBS, 2% BSA, 51.3 ng/ul salmon testes DNA, 50 uM zinc acetate, 200 nM TF, 25 C, 1 h; high values mean tight binding
# Conditions: protein: recombinant; tags: N-terminal polyhistidine and DsRed monomer fusion (pET32a); label: CyDye5-dUTP incorporated in the synthesized complementary strand; 3' TTTTT single-stranded linker to array surface; dsDNA, one strand shown
# Method in brief: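 Using Ni–NTA, transcription factors fused N-terminally to polyhistidine and DsRed were purified after expression in E. coli BL21-CodonPlus. These were incubated at 200 nM with a blocked, double-stranded custom Agilent array for 1 h at 25 °C in a buffer containing 50 µM zinc acetate, and the array was washed. The binding signal is per-feature fluorescence intensity (arbitrary units) on an Axon 4000B scanner.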
row,Sequence,binding signal
1,ATGGGCCCCACATGTCAGCTGGCCACTTCAGCTTCATACCCGGAGTCACCTAGTGCAG,9520 fluorescence intensity (a.u.)
2,TCTACTTATCTAATGATCTTAATTCTGATGTTGTACATGTCGGAGTCACCTAGTGCAG,9180 fluorescence intensity (a.u.)
3,GCTCTCTGTTCATCCTCTTCCTTCCAAAATCCCCAAAATCCGGAGTCACCTAGTGCAG,9160 fluorescence intensity (a.u.)
4,AAGCACAGGACTACACCTTTTTGTCCCCATTTTTTTTGTACGGAGTCACCTAGTGCAG,8350 fluorescence intensity (a.u.)
5,GGTTGGCGGGAGCGGCGATTCGGCGGCGGGAGGGCGCTAGCGGAGTCACCTAGTGCAG,10100 fluorescence intensity (a.u.)
6,GTTTTCGTCTCGAACCGACACCTTTTGTACGTTTTTTTTTCGGAGTCACCTAGTGCAG,10500 fluorescence intensity (a.u.)
7,TTTGAGTTTTTCATGTACTGTTTGACCACTCGTCTTATTACGGAGTCACCTAGTGCAG,10600 fluorescence intensity (a.u.)
8,ACCATGATTCCTTAATCCCCTTCACCTCGTCGATGCTTACCGGAGTCACCTAGTGCAG,10600 fluorescence intensity (a.u.)
9,GCGCCAAGCCGGCCTCCATCTCCGCCGCCCGCGCCTCTCGCGGAGTCACCTAGTGCAG,9170 fluorescence intensity (a.u.)
10,AGTTGTACTTACATTTGCCTGATATGAAGCATTTAATCTTCGGAGTCACCTAGTGCAG,8200 fluorescence intensity (a.u.)
11,GGGGAAATTTTCACGAGGGAGAGGGAGGGGAGGGATATTTCGGAGTCACCTAGTGCAG,23200 fluorescence intensity (a.u.)
12,ATATACTACCTCCATATTTTAATGTATGACGCCGTTGACTCGGAGTCACCTAGTGCAG,8860 fluorescence intensity (a.u.)
13,TTTTTCCCTGTTCATTGTTCCTGTGCCACTTTGATCCATACGGAGTCACCTAGTGCAG,9550 fluorescence intensity (a.u.)
14,ATGTTGGCAGGCTCGACTGTAATGGTGTTGTTCTGTTTCTCGGAGTCACCTAGTGCAG,8830 fluorescence intensity (a.u.)
15,TCAGTGGATTTGCAGCTTGAGTCCTTTATTATGTTTTCCCCGGAGTCACCTAGTGCAG,8800 fluorescence intensity (a.u.)
16,CCTATCTACTGTCGTCGCGTCCTCCTCCTTCTCCGGTCCTCGGAGTCACCTAGTGCAG,8340 fluorescence intensity (a.u.)
17,AAGCATTTCTTGTTGACTTTAAATGCCTGTTCACTTTGATCGGAGTCACCTAGTGCAG,9500 fluorescence intensity (a.u.)
18,AGGTAGAGAGCAGAGCATATGCAGAGCAGGGGAAGGGGCGCGGAGTCACCTAGTGCAG,8090 fluorescence intensity (a.u.)
19,GCTTCTTTCCTTTTCATTGTTATGCCTCCTGAATCCTGACCGGAGTCACCTAGTGCAG,9000 fluorescence intensity (a.u.)
20,AATCATTCACCTGCCTAGCTATGAGCTCCATGATATATCCCGGAGTCACCTAGTGCAG,8770 fluorescence intensity (a.u.)
21,CGTGGTTTTTCTCTCCTACTTTGGGAGGGTTTTTCACGTTCGGAGTCACCTAGTGCAG,10300 fluorescence intensity (a.u.)

row,Sequence,binding signal
1,ATCCCAATCTTCCCCTGCCCACATCTGCTTCCCAGCATCCCGGAGTCACCTAGTGCAG,8720 fluorescence intensity (a.u.)
2,TTCTCTGTCTTCCCGTTGTGTTTGGAAAGAAACTGTTTGTCGGAGTCACCTAGTGCAG,9660 fluorescence intensity (a.u.)
3,ATAGGGGAGGAGGGGCGAGGCGTGGAGGGGACCGGGGACGCGGAGTCACCTAGTGCAG,10300 fluorescence intensity (a.u.)
4,TACACGTCACCACCCGACTCGTCTCCTCTTGTCTCTCTTCCGGAGTCACCTAGTGCAG,8930 fluorescence intensity (a.u.)
5,TGTGCATTTTTTGTCAAAGAAGACCATCGTGGTTCATGTCCGGAGTCACCTAGTGCAG,9230 fluorescence intensity (a.u.)
6,GCTACTTTGCGCTCGCGTCGGCGTCGGCTTCTGTCTCCGACGGAGTCACCTAGTGCAG,12500 fluorescence intensity (a.u.)
7,AGGGTCTTTTTTTTTTTTCTGGGCATGTGGTTTTGACAAGCGGAGTCACCTAGTGCAG,10400 fluorescence intensity (a.u.)
8,TCCCTCTCGTCAATCTCTCTCTCTCTCTCTCTCTCTCTCTCGGAGTCACCTAGTGCAG,8620 fluorescence intensity (a.u.)
9,ATCCGCAGACCAAGTCAACACTGCTACGTGAACACCACATCGGAGTCACCTAGTGCAG,9850 fluorescence intensity (a.u.)
10,AATGGGCTGTAGTGTACTCCTCCAACCTTTTCGCGCCGGCCGGAGTCACCTAGTGCAG,9480 fluorescence intensity (a.u.)
11,CTTTTGCAGACGGTCTTTATAACTTTGAATGGATCTTGGACGGAGTCACCTAGTGCAG,8810 fluorescence intensity (a.u.)
12,TCTCTCTCTCTCTCTCTCTTCTCTCTCCTGGCATCTCAGCCGGAGTCACCTAGTGCAG,9520 fluorescence intensity (a.u.)
13,GGTTTCCACGCGTCGTTTATTACCTTTGCAGACGGTTTCACGGAGTCACCTAGTGCAG,10500 fluorescence intensity (a.u.)
14,CGCGTCTTCTCCATTTCCCATCACATTTCACACGCCCGCACGGAGTCACCTAGTGCAG,11200 fluorescence intensity (a.u.)
15,TATGTGATTTTCTTTCCTTAATCTCGTTTTAGGCTAATTACGGAGTCACCTAGTGCAG,8490 fluorescence intensity (a.u.)
16,TTCCCCACCACCACCAACCCAGACCGGCCGCGGCCTATATCGGAGTCACCTAGTGCAG,8270 fluorescence intensity (a.u.)
17,TATAAACTTAGTCAAACTTGTAGCAGTTTGATTTTGACTACGGAGTCACCTAGTGCAG,9920 fluorescence intensity (a.u.)
18,GTATATCACTATTCCCAAACTGGTGTCTACTCTTTACCGTCGGAGTCACCTAGTGCAG,8920 fluorescence intensity (a.u.)
19,GTATAATAATTCGTTTAGTTTTACTACTTCACCGTCTCTTCGGAGTCACCTAGTGCAG,9290 fluorescence intensity (a.u.)
20,CTACTTCAACGGTGCCTTTTTCTTGGATCTATGGTCGAATCGGAGTCACCTAGTGCAG,11700 fluorescence intensity (a.u.)
21,CTCGTGGCTTTGTTGGCCTCACTGCTCACTTGTCCTGTCACGGAGTCACCTAGTGCAG,8240 fluorescence intensity (a.u.)

row,Sequence,binding signal
1,CCGGCCCGTTACTACATATCATAGAGTACTATTCATCTTACGGAGTCACCTAGTGCAG,8610 fluorescence intensity (a.u.)
2,TTCTGTACTCTAGCTTCTGGTCTCTAGTGTTTCACCACCACGGAGTCACCTAGTGCAG,8560 fluorescence intensity (a.u.)
3,CGTCCATTGCCTGCAGAAACGGACGGCGCGGGTGGGTGGGCGGAGTCACCTAGTGCAG,8950 fluorescence intensity (a.u.)
4,CCACCGTCGACGCCACCTCCGCCGGCCCCGCCACGCGGCGCGGAGTCACCTAGTGCAG,8290 fluorescence intensity (a.u.)
5,ATCGCCGCAACCACCAACCTCTCGAGGCCGTTCGAATCCCCGGAGTCACCTAGTGCAG,12300 fluorescence intensity (a.u.)
6,GTGTGTGCGTTTGTGTGTGTATATAGTAGTTAGGCCAATTCGGAGTCACCTAGTGCAG,11500 fluorescence intensity (a.u.)
7,TCCGCACTCACAAGCTGTACGATCCGTTCCGTTCGTCCTTCGGAGTCACCTAGTGCAG,10200 fluorescence intensity (a.u.)
8,CATCTTCTTTTTCTCGGTATAAATGATTATATCTTAGTTTCGGAGTCACCTAGTGCAG,8920 fluorescence intensity (a.u.)
9,TTGGTGGTGGTCTCCATTGCTCCCTTCCTCCCTGCCTTTTCGGAGTCACCTAGTGCAG,8030 fluorescence intensity (a.u.)
10,AAGTGCTCATCATCTCATAGTTAGTAAGCTTAGCAAGCATCGGAGTCACCTAGTGCAG,8240 fluorescence intensity (a.u.)
11,ACGTGTGGTTGCCGGTTAATACAGCTCCGGCGTTTGACGGCGGAGTCACCTAGTGCAG,8520 fluorescence intensity (a.u.)
12,CATGCCACACTTTCCTACCCTTAGGTCCCACATGTCATATCGGAGTCACCTAGTGCAG,12200 fluorescence intensity (a.u.)
13,TCTCTCCATCCATCCCTGCTGCTTCTCCATCTCGCATCTGCGGAGTCACCTAGTGCAG,16700 fluorescence intensity (a.u.)
14,ATAGGCGTCGCCGCGTACGCCATTGCCAGCCTCGTCCCAACGGAGTCACCTAGTGCAG,8310 fluorescence intensity (a.u.)
15,GCGGGGTGCGAGTGGATGGGTGGGCGTAGCGCGTGTCGTGCGGAGTCACCTAGTGCAG,10400 fluorescence intensity (a.u.)
16,GGTATCGTTACTTCATTGTTCCGTTTCGCTGTTTCATTATCGGAGTCACCTAGTGCAG,14100 fluorescence intensity (a.u.)
17,GAGATGAACTACTACCGCGAGCGCCACTGCCCCGCGCGCGCGGAGTCACCTAGTGCAG,8470 fluorescence intensity (a.u.)
18,TCCCACCACCACTATAATCTCCTCCACTCCCATTCCCTCCCGGAGTCACCTAGTGCAG,8660 fluorescence intensity (a.u.)
19,CCGTCGATTTGGTTGGTTGGTTGATCGGCGGCGAGGAGGGCGGAGTCACCTAGTGCAG,11400 fluorescence intensity (a.u.)
20,TTGCCATATTAGCTCTCTGTTTCCATGGACTAATTAGCAACGGAGTCACCTAGTGCAG,9080 fluorescence intensity (a.u.)
21,CAACCACCTCGCCTCGCCCAGACGCTGACGACTTCACTCCCGGAGTCACCTAGTGCAG,11600 fluorescence intensity (a.u.)

# Rewritten bar-delimited: entries from further up
row | Sequence | binding signal
2 | TTCTGTACTCTAGCTTCTGGTCTCTAGTGTTTCACCACCACGGAGTCACCTAGTGCAG | 8560 fluorescence intensity (a.u.)
5 | ATCGCCGCAACCACCAACCTCTCGAGGCCGTTCGAATCCCCGGAGTCACCTAGTGCAG | 12300 fluorescence intensity (a.u.)
7 | TCCGCACTCACAAGCTGTACGATCCGTTCCGTTCGTCCTTCGGAGTCACCTAGTGCAG | 10200 fluorescence intensity (a.u.)
17 | GAGATGAACTACTACCGCGAGCGCCACTGCCCCGCGCGCGCGGAGTCACCTAGTGCAG | 8470 fluorescence intensity (a.u.)

# Further records.

row,Sequence,binding signal
1,ACTACCGCTTGAGCTCAAGTTTTGCCGCCACCACCGCAGCCGGAGTCACCTAGTGCAG,8690 fluorescence intensity (a.u.)
2,CCCCAACCCACTCACTAACATATGTTTGACTAGTTTGTCACGGAGTCACCTAGTGCAG,10100 fluorescence intensity (a.u.)
3,GTCAACCCATACACAACTTGATCTATGTATGTATTGTACGCGGAGTCACCTAGTGCAG,9270 fluorescence intensity (a.u.)
4,CTCCTCGGGGCCGCCGCGCCGCGCCTGCCCGCGCCCGACTCGGAGTCACCTAGTGCAG,10600 fluorescence intensity (a.u.)
5,TAATACGTTGTCCGCAAATTATACAATTCCTTTTGGCTGTCGGAGTCACCTAGTGCAG,11100 fluorescence intensity (a.u.)
6,TGGTTCTATTTGCTTGTCAACCTTTATGATCTTGCGTTATCGGAGTCACCTAGTGCAG,11500 fluorescence intensity (a.u.)
7,TGCACAATGCCTTCACTGTCAACACACAACTGTTTGGTCCCGGAGTCACCTAGTGCAG,9980 fluorescence intensity (a.u.)
8,AGAGTTTGGCATACTCCTACGTATCATTGTCGACCTTTAGCGGAGTCACCTAGTGCAG,8340 fluorescence intensity (a.u.)
9,CTGACTCCTCCCATGTTCCTTCCCTGATATCGTCATAACTCGGAGTCACCTAGTGCAG,8520 fluorescence intensity (a.u.)
10,GCTATCTTTTCTCTTGGTCATCATGCTTCCTCCATGGATTCGGAGTCACCTAGTGCAG,8330 fluorescence intensity (a.u.)
11,GTCCTAGAGCAGTCCGCTACCTCTATCTGCTCGGCCTATCCGGAGTCACCTAGTGCAG,13000 fluorescence intensity (a.u.)
12,AATCGGATTCGTTCCGGTTTTTTTTCACCCGGTTTTTTTGCGGAGTCACCTAGTGCAG,8600 fluorescence intensity (a.u.)
13,CGTCTAATAGAGCCGAGGCCGTACTTGCTATTCCTTTGCACGGAGTCACCTAGTGCAG,8260 fluorescence intensity (a.u.)
14,GAGTTTAGTTTAAACTTTTTTTTTCAAACTTCCAACTTTTCGGAGTCACCTAGTGCAG,8410 fluorescence intensity (a.u.)
15,CACTAATTTTACCTTAAGATGCCAGGAATTGACTTTTTTTCGGAGTCACCTAGTGCAG,9930 fluorescence intensity (a.u.)
16,CCGCGTCTCATTCCATCTACCACTCTAGCCTACTACTCCGCGGAGTCACCTAGTGCAG,10900 fluorescence intensity (a.u.)
17,GGACACCCGCCCCGCCTCGCCTCGCCTCTGCCTCTCCCCGCGGAGTCACCTAGTGCAG,8240 fluorescence intensity (a.u.)
18,TTGGTTGGTTGGTTGGTGTTTTGAGGCTTGGGTCGGCTTACGGAGTCACCTAGTGCAG,17100 fluorescence intensity (a.u.)
19,TTGAGGCCCCTTAACTTGTTAATGAATTCGATTTTCGTCCCGGAGTCACCTAGTGCAG,8200 fluorescence intensity (a.u.)
20,GTATTCATATGCCAATTAAATTTGCGTCAAGCTTTTTGTTCGGAGTCACCTAGTGCAG,9080 fluorescence intensity (a.u.)
21,CCCAACCCCGTGCCGCGGCCTCGCCGATCGATCGATCGTGCGGAGTCACCTAGTGCAG,8350 fluorescence intensity (a.u.)
